{"sequences": {"note": "Chains of the proteins cited; added tags and fusions are not shown. Lines headed by an entry give the natural chain unless they say otherwise; changes in a name come on top.", "UniProt Q9H6U6": "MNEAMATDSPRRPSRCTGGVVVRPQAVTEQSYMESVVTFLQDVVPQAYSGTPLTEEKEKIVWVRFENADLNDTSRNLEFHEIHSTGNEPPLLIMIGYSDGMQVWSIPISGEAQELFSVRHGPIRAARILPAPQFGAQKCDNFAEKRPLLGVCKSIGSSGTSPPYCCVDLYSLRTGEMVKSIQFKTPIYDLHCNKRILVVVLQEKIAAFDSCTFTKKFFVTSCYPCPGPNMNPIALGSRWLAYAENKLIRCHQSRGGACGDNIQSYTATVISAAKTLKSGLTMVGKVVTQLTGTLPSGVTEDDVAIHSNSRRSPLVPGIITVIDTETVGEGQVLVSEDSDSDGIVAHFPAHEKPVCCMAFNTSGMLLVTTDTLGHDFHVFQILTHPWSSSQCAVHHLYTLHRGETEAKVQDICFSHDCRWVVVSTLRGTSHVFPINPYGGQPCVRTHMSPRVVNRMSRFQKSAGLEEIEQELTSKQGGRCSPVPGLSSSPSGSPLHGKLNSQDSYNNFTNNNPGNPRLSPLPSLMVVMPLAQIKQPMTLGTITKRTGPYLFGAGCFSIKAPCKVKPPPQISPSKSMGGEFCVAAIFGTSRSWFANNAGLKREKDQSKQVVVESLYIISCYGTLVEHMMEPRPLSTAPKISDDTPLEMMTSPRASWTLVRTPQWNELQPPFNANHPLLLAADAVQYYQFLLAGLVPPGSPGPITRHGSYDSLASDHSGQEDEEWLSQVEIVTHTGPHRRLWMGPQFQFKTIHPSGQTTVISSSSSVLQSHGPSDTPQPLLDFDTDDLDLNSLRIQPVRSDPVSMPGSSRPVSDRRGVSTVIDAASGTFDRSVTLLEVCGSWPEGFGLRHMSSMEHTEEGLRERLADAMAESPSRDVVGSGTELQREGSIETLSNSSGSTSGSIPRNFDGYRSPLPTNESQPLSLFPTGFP", "UniProt Q9NYM9": "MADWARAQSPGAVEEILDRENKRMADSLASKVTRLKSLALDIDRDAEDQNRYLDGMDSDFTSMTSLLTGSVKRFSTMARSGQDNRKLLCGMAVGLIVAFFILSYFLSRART", "UniProt Q12797": "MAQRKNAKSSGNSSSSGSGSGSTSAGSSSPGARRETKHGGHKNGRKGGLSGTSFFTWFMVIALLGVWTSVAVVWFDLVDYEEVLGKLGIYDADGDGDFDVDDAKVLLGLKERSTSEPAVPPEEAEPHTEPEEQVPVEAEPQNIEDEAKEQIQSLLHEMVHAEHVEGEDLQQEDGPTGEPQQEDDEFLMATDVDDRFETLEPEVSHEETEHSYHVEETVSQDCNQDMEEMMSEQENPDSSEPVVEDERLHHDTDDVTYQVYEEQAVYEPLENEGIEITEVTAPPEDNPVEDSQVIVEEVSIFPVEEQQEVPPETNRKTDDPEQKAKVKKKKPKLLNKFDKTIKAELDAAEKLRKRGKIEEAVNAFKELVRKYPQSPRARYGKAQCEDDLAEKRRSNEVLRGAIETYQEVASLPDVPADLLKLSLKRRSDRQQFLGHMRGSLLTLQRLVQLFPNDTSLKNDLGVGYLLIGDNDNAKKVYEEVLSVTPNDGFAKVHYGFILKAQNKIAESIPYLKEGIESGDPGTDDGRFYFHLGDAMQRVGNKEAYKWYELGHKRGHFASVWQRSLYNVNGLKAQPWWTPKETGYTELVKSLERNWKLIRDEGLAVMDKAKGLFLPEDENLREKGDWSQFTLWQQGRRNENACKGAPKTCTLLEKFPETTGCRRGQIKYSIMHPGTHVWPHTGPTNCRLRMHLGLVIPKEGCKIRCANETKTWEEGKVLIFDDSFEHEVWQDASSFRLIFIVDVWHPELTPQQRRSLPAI", "UniProt A2VDF0": "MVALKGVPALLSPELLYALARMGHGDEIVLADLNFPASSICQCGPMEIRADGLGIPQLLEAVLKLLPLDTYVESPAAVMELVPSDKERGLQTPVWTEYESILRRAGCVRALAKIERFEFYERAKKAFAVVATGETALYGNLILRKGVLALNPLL", "UniProt Q9NQ11": "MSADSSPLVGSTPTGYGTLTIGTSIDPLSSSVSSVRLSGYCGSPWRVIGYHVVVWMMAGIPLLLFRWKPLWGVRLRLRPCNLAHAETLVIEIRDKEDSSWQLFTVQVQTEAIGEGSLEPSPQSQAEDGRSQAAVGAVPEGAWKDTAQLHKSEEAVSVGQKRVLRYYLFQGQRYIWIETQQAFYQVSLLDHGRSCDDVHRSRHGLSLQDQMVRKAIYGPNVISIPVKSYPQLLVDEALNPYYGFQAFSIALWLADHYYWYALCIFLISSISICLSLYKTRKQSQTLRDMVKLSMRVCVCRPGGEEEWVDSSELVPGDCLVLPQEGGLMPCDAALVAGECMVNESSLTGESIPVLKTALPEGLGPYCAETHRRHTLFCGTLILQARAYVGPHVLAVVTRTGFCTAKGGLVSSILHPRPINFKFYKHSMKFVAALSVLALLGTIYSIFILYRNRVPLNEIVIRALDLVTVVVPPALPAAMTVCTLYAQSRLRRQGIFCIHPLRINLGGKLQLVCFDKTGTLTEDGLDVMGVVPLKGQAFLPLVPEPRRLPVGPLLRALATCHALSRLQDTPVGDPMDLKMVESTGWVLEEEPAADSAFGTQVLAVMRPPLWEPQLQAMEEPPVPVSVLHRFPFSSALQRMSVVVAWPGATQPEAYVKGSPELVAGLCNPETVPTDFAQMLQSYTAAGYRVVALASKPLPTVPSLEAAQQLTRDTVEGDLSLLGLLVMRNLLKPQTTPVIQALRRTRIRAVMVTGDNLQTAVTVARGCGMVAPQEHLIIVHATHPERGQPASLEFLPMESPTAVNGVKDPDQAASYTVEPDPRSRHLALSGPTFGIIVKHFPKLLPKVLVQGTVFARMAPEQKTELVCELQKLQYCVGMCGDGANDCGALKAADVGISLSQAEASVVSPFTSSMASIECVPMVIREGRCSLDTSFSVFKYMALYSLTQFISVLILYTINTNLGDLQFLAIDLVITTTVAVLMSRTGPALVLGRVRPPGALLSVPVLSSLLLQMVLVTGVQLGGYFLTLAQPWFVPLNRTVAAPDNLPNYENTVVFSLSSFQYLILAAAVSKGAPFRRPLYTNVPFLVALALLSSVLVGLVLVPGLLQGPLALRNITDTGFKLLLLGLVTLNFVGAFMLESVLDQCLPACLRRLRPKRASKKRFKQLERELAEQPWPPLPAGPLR", "UniProt P15336": "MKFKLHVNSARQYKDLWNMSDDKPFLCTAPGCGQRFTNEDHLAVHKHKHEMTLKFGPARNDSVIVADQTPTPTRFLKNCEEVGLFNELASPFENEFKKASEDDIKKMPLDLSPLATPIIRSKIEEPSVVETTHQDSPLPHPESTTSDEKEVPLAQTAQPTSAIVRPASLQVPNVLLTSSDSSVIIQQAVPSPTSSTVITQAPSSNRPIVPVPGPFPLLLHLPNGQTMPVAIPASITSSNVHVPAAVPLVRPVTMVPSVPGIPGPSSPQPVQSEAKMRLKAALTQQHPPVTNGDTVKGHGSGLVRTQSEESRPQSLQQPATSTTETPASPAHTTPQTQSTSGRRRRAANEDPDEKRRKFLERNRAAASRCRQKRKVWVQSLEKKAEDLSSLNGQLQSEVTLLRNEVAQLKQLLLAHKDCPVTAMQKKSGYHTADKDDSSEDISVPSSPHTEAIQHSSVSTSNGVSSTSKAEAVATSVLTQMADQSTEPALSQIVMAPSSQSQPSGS", "UniProt Q9Y294, whole entry": "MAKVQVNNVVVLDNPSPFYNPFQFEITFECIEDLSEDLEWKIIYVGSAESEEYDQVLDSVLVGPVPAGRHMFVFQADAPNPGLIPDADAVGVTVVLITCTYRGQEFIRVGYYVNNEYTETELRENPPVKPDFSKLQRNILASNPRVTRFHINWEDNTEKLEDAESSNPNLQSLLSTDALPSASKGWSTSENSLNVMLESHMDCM", "UniProt Q9NVP2, whole entry": "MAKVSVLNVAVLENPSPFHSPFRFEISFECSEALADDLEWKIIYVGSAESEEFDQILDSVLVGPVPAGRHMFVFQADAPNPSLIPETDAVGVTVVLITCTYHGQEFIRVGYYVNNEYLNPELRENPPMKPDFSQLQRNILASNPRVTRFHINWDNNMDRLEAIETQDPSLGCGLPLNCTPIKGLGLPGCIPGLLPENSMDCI", "UniProt Q96C57": "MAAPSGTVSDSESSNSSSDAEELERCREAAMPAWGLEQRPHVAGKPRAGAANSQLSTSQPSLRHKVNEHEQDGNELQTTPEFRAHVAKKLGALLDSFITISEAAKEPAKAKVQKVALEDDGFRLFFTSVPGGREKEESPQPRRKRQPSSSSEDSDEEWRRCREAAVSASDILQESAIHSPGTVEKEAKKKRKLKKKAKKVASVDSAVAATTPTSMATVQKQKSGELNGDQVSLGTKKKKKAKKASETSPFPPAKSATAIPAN", "UniProt Q9NWX5": "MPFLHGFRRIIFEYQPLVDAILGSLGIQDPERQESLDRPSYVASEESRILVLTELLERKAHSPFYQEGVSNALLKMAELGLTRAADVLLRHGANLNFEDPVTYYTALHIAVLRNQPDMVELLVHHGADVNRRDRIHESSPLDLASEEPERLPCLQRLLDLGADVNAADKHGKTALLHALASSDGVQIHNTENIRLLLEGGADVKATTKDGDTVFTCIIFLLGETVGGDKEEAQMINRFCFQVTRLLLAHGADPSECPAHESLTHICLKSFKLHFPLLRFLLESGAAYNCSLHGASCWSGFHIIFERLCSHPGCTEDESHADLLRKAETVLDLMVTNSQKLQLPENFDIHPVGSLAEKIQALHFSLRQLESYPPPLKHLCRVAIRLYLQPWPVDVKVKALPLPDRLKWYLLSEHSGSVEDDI", "UniProt Q9H3J6": "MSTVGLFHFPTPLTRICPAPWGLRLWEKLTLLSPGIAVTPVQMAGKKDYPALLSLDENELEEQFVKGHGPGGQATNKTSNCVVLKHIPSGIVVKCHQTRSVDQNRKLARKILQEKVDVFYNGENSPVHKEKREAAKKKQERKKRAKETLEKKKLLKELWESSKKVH", "UniProt Q9NQ88": "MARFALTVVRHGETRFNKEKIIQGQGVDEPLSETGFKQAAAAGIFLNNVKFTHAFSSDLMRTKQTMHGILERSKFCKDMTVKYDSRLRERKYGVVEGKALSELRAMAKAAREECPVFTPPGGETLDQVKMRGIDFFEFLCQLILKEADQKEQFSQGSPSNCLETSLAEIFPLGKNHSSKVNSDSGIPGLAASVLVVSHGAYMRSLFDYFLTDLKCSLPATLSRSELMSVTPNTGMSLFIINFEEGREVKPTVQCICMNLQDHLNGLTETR", "UniProt O43683": "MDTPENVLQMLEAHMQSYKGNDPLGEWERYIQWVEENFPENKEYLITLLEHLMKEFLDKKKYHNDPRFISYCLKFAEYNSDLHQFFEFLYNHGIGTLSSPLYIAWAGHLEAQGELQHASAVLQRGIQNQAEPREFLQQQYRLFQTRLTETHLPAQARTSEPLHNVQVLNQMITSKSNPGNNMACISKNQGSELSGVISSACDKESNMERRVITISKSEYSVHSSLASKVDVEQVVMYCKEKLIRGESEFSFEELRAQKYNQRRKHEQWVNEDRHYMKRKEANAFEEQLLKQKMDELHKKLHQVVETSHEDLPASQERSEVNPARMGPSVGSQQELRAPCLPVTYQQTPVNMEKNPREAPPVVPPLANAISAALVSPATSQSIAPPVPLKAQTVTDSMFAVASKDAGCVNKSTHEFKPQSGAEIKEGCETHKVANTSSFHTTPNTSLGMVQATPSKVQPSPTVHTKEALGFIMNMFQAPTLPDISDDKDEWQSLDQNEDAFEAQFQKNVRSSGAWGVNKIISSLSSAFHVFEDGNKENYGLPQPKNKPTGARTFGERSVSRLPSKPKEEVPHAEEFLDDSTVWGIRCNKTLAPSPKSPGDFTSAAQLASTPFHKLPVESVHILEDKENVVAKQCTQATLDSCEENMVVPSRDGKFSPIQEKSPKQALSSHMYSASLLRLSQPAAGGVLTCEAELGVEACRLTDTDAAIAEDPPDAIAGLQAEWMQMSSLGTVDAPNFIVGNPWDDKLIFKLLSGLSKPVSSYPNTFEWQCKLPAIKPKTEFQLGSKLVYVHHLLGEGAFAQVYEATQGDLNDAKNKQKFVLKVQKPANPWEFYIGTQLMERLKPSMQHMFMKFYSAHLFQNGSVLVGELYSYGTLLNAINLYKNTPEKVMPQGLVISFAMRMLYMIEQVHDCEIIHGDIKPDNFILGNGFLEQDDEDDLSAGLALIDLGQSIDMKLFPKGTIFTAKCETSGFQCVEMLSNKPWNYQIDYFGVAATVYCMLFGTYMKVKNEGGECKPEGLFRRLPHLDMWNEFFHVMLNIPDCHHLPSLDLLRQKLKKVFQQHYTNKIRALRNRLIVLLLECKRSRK", "UniProt Q13825": "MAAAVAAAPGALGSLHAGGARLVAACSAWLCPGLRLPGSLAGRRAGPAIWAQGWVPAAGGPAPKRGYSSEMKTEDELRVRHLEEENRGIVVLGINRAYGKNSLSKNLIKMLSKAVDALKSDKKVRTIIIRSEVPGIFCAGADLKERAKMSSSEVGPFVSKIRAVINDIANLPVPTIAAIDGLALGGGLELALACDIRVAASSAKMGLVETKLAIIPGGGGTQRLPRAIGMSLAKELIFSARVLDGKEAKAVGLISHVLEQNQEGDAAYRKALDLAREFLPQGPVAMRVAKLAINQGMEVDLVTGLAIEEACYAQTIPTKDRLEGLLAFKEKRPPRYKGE"}, "source": "the supplement of paper PMC7666118", "note": "The other results are listed elsewhere or left out."}
{"compound": "COc1ccc(Cn2ccc3ccc(C(=O)NO)cc32)cc1", "experiment": "dose-dependent thermal stabilisation call (2D-TPP, DLPTP, 10% FDR) (binary (1 = stabilised)); higher = stabilised by the compound", "details": "system: HL-60 intact cells; concentration range 0.04-10 µM"}
{"target": "BCAS3 (UniProt Q9H6U6)", "dose-dependent thermal stabilisation call": "inactive: 0"}
{"target": "BET1L (UniProt Q9NYM9)", "dose-dependent thermal stabilisation call": "inactive: 0"}
{"target": "ASPH (UniProt Q12797)", "dose-dependent thermal stabilisation call": "inactive: 0"}
{"target": "BCAT2 (UniProt O15382)", "dose-dependent thermal stabilisation call": "inactive: 0"}
{"target": "ATP6V0C (UniProt P27449)", "dose-dependent thermal stabilisation call": "inactive: 0"}
{"target": "C10ORF125 (UniProt A2VDF0)", "dose-dependent thermal stabilisation call": "inactive: 0"}
{"target": "BICD2 (UniProt Q8TD16)", "dose-dependent thermal stabilisation call": "inactive: 0"}
{"target": "ARMET (UniProt P55145)", "dose-dependent thermal stabilisation call": "inactive: 0"}
{"target": "ATP9B (UniProt O43861)", "dose-dependent thermal stabilisation call": "inactive: 0"}
{"target": "ATP13A2 (UniProt Q9NQ11)", "dose-dependent thermal stabilisation call": "inactive: 0"}
{"target": "UniProt B3KNS4_HUMAN", "dose-dependent thermal stabilisation call": "inactive: 0"}
{"target": "ASPM (UniProt Q8IZT6)", "dose-dependent thermal stabilisation call": "inactive: 0"}
{"target": "BOLA2 (UniProt Q9H3K6)", "dose-dependent thermal stabilisation call": "inactive: 0"}
{"target": "BCAT1 (UniProt P54687)", "dose-dependent thermal stabilisation call": "inactive: 0"}
{"target": "ATF2 (UniProt P15336)", "dose-dependent thermal stabilisation call": "inactive: 0"}
{"target": "C10ORF28 (UniProt Q7Z5L2)", "dose-dependent thermal stabilisation call": "inactive: 0"}
{"target": "ASF1A (UniProt Q9Y294)", "dose-dependent thermal stabilisation call": "inactive: 0"}
{"target": "ASF1B (UniProt Q9NVP2)", "dose-dependent thermal stabilisation call": "inactive: 0"}
{"target": "C12ORF43 (UniProt Q96C57)", "dose-dependent thermal stabilisation call": "inactive: 0"}
{"target": "BLVRB (UniProt P30043)", "dose-dependent thermal stabilisation call": "inactive: 0"}
{"target": "BAX (UniProt Q07812)", "dose-dependent thermal stabilisation call": "inactive: 0"}
{"target": "ARPC2 (UniProt O15144)", "dose-dependent thermal stabilisation call": "inactive: 0"}
{"target": "BOP1 (UniProt Q14137)", "dose-dependent thermal stabilisation call": "inactive: 0"}
{"target": "ARMCX3 (UniProt Q9UH62)", "dose-dependent thermal stabilisation call": "inactive: 0"}
{"target": "ASB6 (UniProt Q9NWX5)", "dose-dependent thermal stabilisation call": "inactive: 0"}
{"target": "ARL3 (UniProt P36405)", "dose-dependent thermal stabilisation call": "inactive: 0"}
{"target": "C12ORF65 (UniProt Q9H3J6)", "dose-dependent thermal stabilisation call": "inactive: 0"}
{"target": "ARMC8 (UniProt Q8IUR7)", "dose-dependent thermal stabilisation call": "inactive: 0"}
{"target": "C12ORF5 (UniProt Q9NQ88)", "dose-dependent thermal stabilisation call": "inactive: 0"}
{"target": "BPTF (UniProt Q12830)", "dose-dependent thermal stabilisation call": "inactive: 0"}
{"target": "C10ORF84 (UniProt Q9H8W3)", "dose-dependent thermal stabilisation call": "inactive: 0"}
{"target": "BUB1 (UniProt O43683)", "dose-dependent thermal stabilisation call": "inactive: 0"}
{"target": "BTAF1 (UniProt O14981)", "dose-dependent thermal stabilisation call": "inactive: 0"}
{"target": "ATG4C (UniProt Q96DT6)", "dose-dependent thermal stabilisation call": "inactive: 0"}
{"target": "ARSA (UniProt P15289)", "dose-dependent thermal stabilisation call": "inactive: 0"}
{"target": "BAT2 (UniProt P48634)", "dose-dependent thermal stabilisation call": "inactive: 0"}
{"target": "AUH (UniProt Q13825)", "dose-dependent thermal stabilisation call": "inactive: 0"}
